Measurements: the supplement of paper PMC12819154, “High-throughput peptide-centric local stability assay extends protein–ligand identification to membrane proteins, tissues and bacteria” (Nature Structural & Molecular Biology, 2025)
The other results are listed elsewhere or left out. Most values lie at the level of the controls, where differences are scatter.

The chains behind the UniProt entries cited, without tags or fusion partners. Where a name states a change or a piece, a line headed by the entry shows the natural chain unless it says otherwise.
UniProt Q9Y5B0: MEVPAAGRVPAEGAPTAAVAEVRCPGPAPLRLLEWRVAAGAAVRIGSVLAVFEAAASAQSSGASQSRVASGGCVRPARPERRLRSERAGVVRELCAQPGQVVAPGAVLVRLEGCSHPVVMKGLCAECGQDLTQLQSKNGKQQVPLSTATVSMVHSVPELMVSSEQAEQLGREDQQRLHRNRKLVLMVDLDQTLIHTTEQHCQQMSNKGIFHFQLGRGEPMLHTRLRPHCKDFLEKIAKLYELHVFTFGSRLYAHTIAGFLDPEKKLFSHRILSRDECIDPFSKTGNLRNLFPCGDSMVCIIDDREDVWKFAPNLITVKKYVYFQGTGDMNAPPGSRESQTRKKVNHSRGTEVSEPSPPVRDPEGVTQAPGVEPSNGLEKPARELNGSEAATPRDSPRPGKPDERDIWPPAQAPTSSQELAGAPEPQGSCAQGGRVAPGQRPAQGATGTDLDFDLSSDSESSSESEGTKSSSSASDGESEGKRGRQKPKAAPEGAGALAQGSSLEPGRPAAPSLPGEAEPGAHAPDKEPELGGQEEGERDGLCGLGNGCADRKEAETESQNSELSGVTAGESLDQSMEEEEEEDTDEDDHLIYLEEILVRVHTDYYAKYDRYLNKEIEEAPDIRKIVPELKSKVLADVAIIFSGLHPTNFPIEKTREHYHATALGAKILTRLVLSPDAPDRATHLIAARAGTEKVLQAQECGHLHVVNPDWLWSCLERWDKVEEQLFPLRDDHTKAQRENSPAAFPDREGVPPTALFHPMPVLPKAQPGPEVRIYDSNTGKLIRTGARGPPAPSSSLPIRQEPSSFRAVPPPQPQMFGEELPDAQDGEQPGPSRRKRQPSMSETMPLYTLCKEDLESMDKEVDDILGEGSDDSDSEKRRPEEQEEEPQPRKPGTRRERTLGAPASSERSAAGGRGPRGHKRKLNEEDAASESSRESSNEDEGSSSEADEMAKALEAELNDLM
UniProt Q9Y679: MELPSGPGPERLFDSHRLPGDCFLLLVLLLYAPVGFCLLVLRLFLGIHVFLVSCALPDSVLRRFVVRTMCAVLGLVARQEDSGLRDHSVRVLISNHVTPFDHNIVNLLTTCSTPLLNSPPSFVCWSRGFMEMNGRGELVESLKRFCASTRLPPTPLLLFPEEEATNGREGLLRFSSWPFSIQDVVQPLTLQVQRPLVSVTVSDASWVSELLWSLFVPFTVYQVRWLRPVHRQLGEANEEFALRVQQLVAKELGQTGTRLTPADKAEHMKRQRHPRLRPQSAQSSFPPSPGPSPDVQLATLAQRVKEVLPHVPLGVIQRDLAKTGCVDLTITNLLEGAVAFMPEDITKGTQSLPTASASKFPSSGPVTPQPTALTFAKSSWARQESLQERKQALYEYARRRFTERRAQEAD
UniProt Q9Y6K8: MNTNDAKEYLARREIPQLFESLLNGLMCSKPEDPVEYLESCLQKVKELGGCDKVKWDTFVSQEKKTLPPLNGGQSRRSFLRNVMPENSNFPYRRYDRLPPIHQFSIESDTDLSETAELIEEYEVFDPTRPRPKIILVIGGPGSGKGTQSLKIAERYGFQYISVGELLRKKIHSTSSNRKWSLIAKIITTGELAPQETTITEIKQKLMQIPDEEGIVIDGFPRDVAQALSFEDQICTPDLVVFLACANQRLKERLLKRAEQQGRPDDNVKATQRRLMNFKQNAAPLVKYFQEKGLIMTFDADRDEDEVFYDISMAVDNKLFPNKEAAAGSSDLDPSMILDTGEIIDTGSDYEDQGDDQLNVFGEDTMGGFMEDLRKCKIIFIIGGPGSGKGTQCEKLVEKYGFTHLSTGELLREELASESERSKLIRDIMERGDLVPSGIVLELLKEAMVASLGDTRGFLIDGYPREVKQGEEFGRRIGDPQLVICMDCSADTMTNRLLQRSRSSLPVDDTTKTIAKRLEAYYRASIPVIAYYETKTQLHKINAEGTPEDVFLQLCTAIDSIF
UniProt Q9Y6G9, whole entry: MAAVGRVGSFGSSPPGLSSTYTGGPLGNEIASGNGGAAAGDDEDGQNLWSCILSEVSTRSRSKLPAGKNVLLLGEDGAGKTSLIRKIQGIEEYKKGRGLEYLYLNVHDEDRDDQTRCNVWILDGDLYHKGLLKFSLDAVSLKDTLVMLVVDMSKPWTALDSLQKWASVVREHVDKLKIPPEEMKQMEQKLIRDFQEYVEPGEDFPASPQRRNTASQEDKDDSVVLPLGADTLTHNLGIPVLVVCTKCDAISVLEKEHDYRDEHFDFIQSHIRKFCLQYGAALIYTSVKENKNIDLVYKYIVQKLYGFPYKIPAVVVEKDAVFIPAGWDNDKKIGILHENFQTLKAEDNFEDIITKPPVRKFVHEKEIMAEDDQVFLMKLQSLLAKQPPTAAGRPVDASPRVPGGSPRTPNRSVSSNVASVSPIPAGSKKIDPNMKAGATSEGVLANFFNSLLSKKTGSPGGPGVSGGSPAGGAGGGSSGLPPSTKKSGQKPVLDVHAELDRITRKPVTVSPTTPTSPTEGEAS
UniProt Q9Y6M9, whole entry: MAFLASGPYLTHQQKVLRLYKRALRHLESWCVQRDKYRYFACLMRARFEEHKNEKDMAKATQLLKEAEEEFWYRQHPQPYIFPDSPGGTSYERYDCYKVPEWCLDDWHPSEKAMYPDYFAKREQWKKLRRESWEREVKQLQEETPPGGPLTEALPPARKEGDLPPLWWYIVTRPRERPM
UniProt Q9Y5U2: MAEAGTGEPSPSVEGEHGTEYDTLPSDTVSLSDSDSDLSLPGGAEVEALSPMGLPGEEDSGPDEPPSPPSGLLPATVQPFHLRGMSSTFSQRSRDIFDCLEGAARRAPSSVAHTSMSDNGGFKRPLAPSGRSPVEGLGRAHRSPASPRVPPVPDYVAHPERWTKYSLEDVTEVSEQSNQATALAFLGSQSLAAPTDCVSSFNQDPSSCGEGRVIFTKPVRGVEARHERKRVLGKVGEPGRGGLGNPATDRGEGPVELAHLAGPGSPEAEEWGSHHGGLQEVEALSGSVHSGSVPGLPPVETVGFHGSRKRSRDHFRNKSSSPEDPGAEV
UniProt Q9Y3T6: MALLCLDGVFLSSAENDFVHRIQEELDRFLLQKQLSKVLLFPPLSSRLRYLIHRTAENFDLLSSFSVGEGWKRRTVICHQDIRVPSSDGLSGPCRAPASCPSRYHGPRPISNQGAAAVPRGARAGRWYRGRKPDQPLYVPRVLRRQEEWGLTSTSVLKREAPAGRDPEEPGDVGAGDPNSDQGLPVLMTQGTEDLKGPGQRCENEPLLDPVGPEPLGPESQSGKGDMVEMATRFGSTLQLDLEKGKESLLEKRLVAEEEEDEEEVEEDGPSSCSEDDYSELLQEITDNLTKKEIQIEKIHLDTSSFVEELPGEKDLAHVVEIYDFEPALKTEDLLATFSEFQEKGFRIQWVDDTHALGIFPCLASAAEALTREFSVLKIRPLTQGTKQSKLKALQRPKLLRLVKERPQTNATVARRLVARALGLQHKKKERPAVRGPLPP
UniProt Q9Y6B2: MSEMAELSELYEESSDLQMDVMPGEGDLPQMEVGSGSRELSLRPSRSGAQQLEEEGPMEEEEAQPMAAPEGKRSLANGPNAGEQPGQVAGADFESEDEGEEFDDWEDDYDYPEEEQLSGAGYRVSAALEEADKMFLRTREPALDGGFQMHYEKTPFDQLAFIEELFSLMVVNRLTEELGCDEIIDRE
UniProt Q9Y6V7: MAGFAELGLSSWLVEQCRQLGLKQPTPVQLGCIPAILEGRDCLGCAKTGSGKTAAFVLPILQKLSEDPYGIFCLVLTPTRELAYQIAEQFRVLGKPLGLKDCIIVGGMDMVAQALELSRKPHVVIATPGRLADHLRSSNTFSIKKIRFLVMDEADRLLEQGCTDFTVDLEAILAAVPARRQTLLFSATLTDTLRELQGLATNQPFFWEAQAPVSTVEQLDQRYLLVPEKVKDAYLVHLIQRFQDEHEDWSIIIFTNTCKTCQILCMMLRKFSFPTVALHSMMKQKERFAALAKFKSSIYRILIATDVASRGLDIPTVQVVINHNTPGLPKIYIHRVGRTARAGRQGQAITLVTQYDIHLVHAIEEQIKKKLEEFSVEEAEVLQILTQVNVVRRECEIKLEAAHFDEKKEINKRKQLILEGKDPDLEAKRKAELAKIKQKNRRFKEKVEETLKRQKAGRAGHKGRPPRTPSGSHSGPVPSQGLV

The targets below were run with CN[C@@H]1C[C@H]2O[C@@](C)([C@@H]1OC)n1c3ccccc3c3c4c(c5c6ccccc6n2c5c31)C(=O)NC4 [staurosporine] (assay: log2 fold change of tryptic peptide abundance, ligand vs vehicle (limited proteolysis) (log2 ratio); higher = more trypsin-susceptible (destabilized)). Conditions: ligand concentration: 20 uM; sample: K562 cleared lysate; digestion: 4 min, 22 C (HT-PELSA RT4min, Orbitrap Astral).

Target | log2 fold change
CTDP1 (peptide sequence: ENSPAAFPDR, peptide start residue: 738) (UniProt Q9Y5B0) | -0.207
AUP1 (peptide sequence: LTPADKAEHMK, peptide start residue: 259) (UniProt Q9Y679) | 0.351
AK5 (peptide sequence: GFLIDGYPR, peptide start residue: 89) (UniProt Q9Y6K8) | 0.0244
DYNC1LI1 (peptide sequence: LPAGKNVLLLGEDGAGKTSLIR, peptide start residue: 64) (UniProt Q9Y6G9) | 0.637
NDUFB9 (peptide sequence: AMYPDYFAK, peptide start residue: 113) (UniProt Q9Y6M9) | -0.0786
TRRAP (peptide sequence: LLLNLVDCIR, peptide start residue: 422) (UniProt Q9Y4A5) | -0.534
TSSC4 (peptide sequence: DIFDCLEGAAR, peptide start residue: 95) (UniProt Q9Y5U2) | 0.0544
R3HCC1 (peptide sequence: DLAHVVEIYDFEPALK, peptide start residue: 315) (UniProt Q9Y3T6) | 0.22
EID1 (peptide sequence: VSAALEEADKMFLR, peptide start residue: 124) (UniProt Q9Y6B2) | -0.157
DDX49 (peptide sequence: QLILEGKDPDLEAKR, peptide start residue: 415) (UniProt Q9Y6V7) | -0.134
